Source: PubChem BioAssay AID1347075 (National Center for Advancing Translational Sciences (NCATS), 2019)
Screen size: about 400,000 compounds; about 5,500 (1.4%) were called active. The inconclusive results got no clear call from the source; some entries with a clear call stand among them for comparison. The call rests on the fitted dose curve; in most records, active means well fitted cell-killing curve with a large enough effect; inconclusive means small, poorly fitted or top-dose-only effect, or effect the other way; inactive means flat fitted curve, though single readings scatter. Potencies beside an inconclusive call are fits to weak or partial responses and may not hold up.

Test: qHTS assay for MDR1-selective chemotherapeutics: Primary screen using the parental adenocarcinoma cell KB-3-1; further: nearly all actives have a fitted effect of over 60% in size
Details: KB-3-1 viability, CellTiter-Glo ATP luminescence, 72 h; series mostly up to 46.1 µM
Summary of the method: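 Viability of parental KB-3-1 cells, measured by CellTiter-Glo luminescence, followed a 72 h incubation at 37 °C with pinned compounds in phenol-red-free DMEM containing 10% FBS.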
Potency means the concentration at half of the fitted maximal effect.

SMILES | Potency
CCCNC(=O)c1ccc(N2CCC3(CC2)CC(c2cccc(Br)c2)=NO3)c(NC(=O)c2c(Cl)cccc2Cl)c1 | inconclusive: 25.9 µM [rising, single point]
CCOC(=O)c1cc(C#N)c(N2CCCC2)nc1-c1ccccc1 | inconclusive: 29.1 µM [cytotoxic, single point]
OC(CN(c1ccccc1)c1ccccc1)Cn1cnc2ccccc21 (centres undefined) | inconclusive: 29.1 µM [cytotoxic, single point]
CCCCCCCCN=C1NC(=O)CS1 | inconclusive: 20.6 µM [cytotoxic, single point]
CN(C)CCCN(Cc1cc2cc3c(cc2[nH]c1=O)OCO3)C(=S)Nc1cccc(Cl)c1 | inactive
CC(=O)c1ccc(Oc2cc(C)nc(NCc3ccccc3)n2)cc1 | inconclusive: 29.1 µM [cytotoxic, partial curve, poor fit]
C[C@H]1CN([C@@H](C)CO)C(=O)Cc2cc(NC(=O)CCC(F)(F)F)ccc2O[C@H]1CN(C)Cc1ccc(-c2ccccc2)cc1 | inconclusive: 16.4 µM [cytotoxic, single point]
O=C(CN(c1ccccc1)S(=O)(=O)c1ccc(F)cc1)NCc1cccs1 | inactive
O=C(CN1C(=O)NC2(CCCC2)C1=O)NNC(=O)c1ccc(Br)cc1 | inactive
C=CCOc1ccc(Br)cc1CNC(C)(C)CO | inactive
CC(=O)N1CCc2c(sc3c2c(=O)n(Cc2ccccc2)c(=O)n3Cc2cccc(Cl)c2)C1 | inconclusive: 29.1 µM [cytotoxic, single point]
CNC[C@H](Cc1ccccc1)NC[C@@H](Cc1cccc2ccccc12)NCCc1ccc(C)cc1 | active: 7.31 µM
Cn1c(=O)c([N+](=O)[O-])c(N2CCN(Cc3ccc4c(c3)OCO4)CC2)c2ccccc21 | inactive
COc1ccc(-c2cn3nc(N4CCC(C(=O)NCc5cccc(Cl)c5)CC4)sc3n2)cc1 | inactive
COc1ccc(CNc2nc3c(c(=O)n(Cc4ccc(F)cc4)c(=O)n3C)n2C)cc1 | inconclusive: 25.9 µM [cytotoxic, single point]
CC(NC(=O)c1cc2sccc2n1C)c1ccc2c(c1)OCCO2 (centres undefined) | inconclusive: 18.4 µM [cytotoxic, partial curve]
COc1ccc(-c2csc(NC(=O)c3cc(C)oc3C)n2)cc1OC | inconclusive: 29.1 µM [cytotoxic, single point]
c1ccc(-n2nnnc2Sc2n[nH]c(-c3ccncc3)n2)cc1 | inactive
CC1=Nc2cc(C(=O)NC3CCC(C)CC3)ccc2Sc2c(C)ccc(C)c21 (centres undefined) | active: 0.517 µM

2 records drawn at random from the list so far:
SMILES | Potency
CC1=Nc2cc(C(=O)NC3CCC(C)CC3)ccc2Sc2c(C)ccc(C)c21 (centres undefined) | active: 0.517 µM
COc1ccc(-c2cn3nc(N4CCC(C(=O)NCc5cccc(Cl)c5)CC4)sc3n2)cc1 | inactive
